In this assay the target is T1, FLAG-CARM1 (UniProt Q86X55).
T1 sequence: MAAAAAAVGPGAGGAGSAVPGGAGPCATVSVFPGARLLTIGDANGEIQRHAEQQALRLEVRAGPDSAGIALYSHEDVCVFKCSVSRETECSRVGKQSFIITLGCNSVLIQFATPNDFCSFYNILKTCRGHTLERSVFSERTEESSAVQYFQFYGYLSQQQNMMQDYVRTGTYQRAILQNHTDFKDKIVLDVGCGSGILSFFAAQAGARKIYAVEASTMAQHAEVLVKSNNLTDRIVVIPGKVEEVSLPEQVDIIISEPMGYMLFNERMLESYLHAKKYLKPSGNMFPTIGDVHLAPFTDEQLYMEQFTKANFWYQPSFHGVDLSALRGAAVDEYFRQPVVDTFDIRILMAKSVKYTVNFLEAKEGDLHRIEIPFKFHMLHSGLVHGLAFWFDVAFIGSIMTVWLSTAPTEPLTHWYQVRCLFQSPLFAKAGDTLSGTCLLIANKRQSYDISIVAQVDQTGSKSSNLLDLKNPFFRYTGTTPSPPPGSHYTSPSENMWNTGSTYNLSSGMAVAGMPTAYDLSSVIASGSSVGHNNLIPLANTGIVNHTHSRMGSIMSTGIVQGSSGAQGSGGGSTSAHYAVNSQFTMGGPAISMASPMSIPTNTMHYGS
In words: co-IP; HEK293T cells co-transfected with pcDNA3-HA-YY1 and pCMV-FLAG-CARM1; lysate (50 mM Tris-Cl pH 7.4, 150 mM NaCl, 1 mM EDTA, 1% Triton-X 100) incubated with M2 agarose beads 6 h at 4 C; eluted with FLAG peptide; immunoblot with HA and FLAG tag-specific antibodies. Background: A western blot detects proteins with antibodies after separation by electrophoresis.

By UniProt entry, the sequences of proteins in these tests, tags left out.
UniProt P25490: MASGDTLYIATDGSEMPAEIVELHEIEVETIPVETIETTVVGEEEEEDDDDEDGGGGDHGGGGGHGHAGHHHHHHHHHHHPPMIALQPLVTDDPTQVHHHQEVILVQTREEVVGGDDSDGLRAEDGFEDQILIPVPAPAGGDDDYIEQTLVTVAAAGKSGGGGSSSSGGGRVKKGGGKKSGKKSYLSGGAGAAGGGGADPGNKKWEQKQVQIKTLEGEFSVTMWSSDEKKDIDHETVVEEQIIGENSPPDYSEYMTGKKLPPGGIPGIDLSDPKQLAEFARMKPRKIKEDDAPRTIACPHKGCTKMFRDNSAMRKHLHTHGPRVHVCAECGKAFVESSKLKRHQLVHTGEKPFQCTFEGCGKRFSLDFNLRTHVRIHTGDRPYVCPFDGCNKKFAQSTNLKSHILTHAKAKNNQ

Results are given in words; binding and its absence hold for the method and conditions named. Binding seen in cells or lysates may run through a third protein. Some binding calls cover weakened binding; strength is not graded here. Where a sequence is shown, tags or fusion partners need not be part of it.

As to HA-YY1 (from UniProt P25490 1-414), the binding entry is on record as “binds”.
